The values below are quoted from earlier work in patent US4246270A, “3-Fluorobenzodiazepines and compositions and uses thereof” (E. I. Du Pont de Nemours and Company, priority 1976, dated 1981).

The structures appear in SMILES notation.

For the series the following is noted: man and other animals; cited from earlier work.

Regarding `CN1C(=O)CN=C(c2ccccc2)c2cc(Cl)ccc21` [Diazepam, reference compound], the metabolism result is “metabolized in man and other animals by oxidative attack at the 3-position”.
